Measurements: publication PMC6945063 (2019)

Amino acid sequences for entries named in this document (tags omitted). A change or cut given only in a name is not applied to a line headed by its entry. Chains listed by the source or under a name are the forms on record and can include a tag or linker.
UniProt P60520: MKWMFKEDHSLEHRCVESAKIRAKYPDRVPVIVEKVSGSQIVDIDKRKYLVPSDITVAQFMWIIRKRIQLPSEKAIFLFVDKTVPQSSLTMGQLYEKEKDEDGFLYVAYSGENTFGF
HA‐GABARAP‐L2 S87/88A (P60520, form named): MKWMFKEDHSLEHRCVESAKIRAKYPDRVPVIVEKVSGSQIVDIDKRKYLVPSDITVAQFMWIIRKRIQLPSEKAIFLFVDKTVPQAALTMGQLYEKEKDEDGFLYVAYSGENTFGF
HA‐GABARAP‐L2 S87/88D (P60520, form named): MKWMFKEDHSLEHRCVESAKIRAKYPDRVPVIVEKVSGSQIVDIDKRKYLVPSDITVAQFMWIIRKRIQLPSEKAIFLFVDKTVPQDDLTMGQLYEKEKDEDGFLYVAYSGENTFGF
UniProt Q9UHD2: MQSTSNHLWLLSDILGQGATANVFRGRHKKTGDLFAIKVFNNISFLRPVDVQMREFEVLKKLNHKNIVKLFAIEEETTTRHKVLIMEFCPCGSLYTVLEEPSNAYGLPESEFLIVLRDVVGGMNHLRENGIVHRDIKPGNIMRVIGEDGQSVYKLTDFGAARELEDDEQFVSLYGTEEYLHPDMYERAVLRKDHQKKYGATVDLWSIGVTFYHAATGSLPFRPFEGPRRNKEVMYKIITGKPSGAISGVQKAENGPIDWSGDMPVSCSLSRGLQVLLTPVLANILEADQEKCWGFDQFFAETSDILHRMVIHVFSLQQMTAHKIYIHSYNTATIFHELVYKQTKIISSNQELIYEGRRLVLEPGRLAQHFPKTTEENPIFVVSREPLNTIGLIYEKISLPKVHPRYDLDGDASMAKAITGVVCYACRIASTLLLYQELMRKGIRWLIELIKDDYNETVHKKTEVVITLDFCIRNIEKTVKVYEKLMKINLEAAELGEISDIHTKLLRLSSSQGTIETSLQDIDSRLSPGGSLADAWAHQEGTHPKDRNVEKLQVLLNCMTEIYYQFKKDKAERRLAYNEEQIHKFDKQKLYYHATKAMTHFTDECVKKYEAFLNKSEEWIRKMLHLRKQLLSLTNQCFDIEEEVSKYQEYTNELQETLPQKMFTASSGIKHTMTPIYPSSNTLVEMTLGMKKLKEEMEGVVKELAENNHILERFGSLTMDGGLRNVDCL

Columns and labels:
Test in all cases: affinity purification with mass spectrometry; HEK293T transfected with HA‐GABARAP‐L2 WT, S87/88A or S87/88D or control plasmid; HA immunoprecipitation in IP Lysis Buffer; label-free quantification against an HA-only IP
[1] = molecular target: HA‐GABARAP‐L2 S87/88A (human) (UniProt P60520)
HA‐GABARAP‐L2 WT (human) = HA‐GABARAP‐L2 WT (human) (UniProt P60520)
[2] = molecular target: HA‐GABARAP‐L2 S87/88D (human) (UniProt P60520)

- binding [1]: binds
- binding (HA‐GABARAP‐L2 WT (human)): binds
- binding [2]: binds
Substance: Endogenous TBK1 (from UniProt Q9UHD2 1-729) (enzyme)

No constants are given. Whether binding was seen depends on the method and setting. In cells and extracts the contact can be indirect. Here binding means that the protein was enriched with, or labelled near, the bait; the list need not be complete.
